PubChem BioAssay AID1508597 | Cure First – 2020

Assay: 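Survival screen with siRNA in ovarian cancer cells derived from patients, with or without rucaparib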 (primary screen)
Cells: human ovarian carcinoma lines grown from tumours: OCI-P5x (papillary serous) and OCI-C5x (clear cell)
Reagents: siRNA pool against human genes, 1.25 pmol siRNA per well
Duration: 72 h or 96 h, depending on the cell culture
Treatment: rucaparib 20 µM (about IC30) or vehicle, present until read-out
Rucaparib or vehicle: Vehicle
Cell line: OCI-C5x (clear cell)
Read-out: 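ATP luminescence measured at 72 or 96 h according to the culture, then normalised and expressed as percent viability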
Direction: viability, normalised: higher = more viable cells remaining
Active means: 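Active when normalised viability falls below 80 percent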
Calls: active = viability under 80%; inactive = viability 80% or more
This is a random part of the about 2,100 reagents, in one setting of the screen. 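Calls flag viability under 80% in either arm, not effects specific to rucaparib; the reference for percent is not stated.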 Entries without a mark were called inactive. A reagent listed more than once was tested more than once; the source does not tell the runs apart. Not stated in the record: the 100% reference.

gene | technical replicate | viability, normalised (%)
TAF1L (TATA-box binding protein associated factor 1 like) | 1 | 64.6 (active)
TAF1L (TATA-box binding protein associated factor 1 like) | 1 | 43.4 (active)
TAF1L (TATA-box binding protein associated factor 1 like) | 2 | 49.4 (active)
TAF1L (TATA-box binding protein associated factor 1 like) | 2 | 55.5 (active)
TAF1L (TATA-box binding protein associated factor 1 like) | 3 | 43.2 (active)
TAF1L (TATA-box binding protein associated factor 1 like) | 3 | 49.8 (active)
RLIM (ring finger protein, LIM domain interacting) | 1 | 43.1 (active)
RLIM (ring finger protein, LIM domain interacting) | 2 | 52 (active)
RLIM (ring finger protein, LIM domain interacting) | 3 | 44.2 (active)
PARP8 (poly(ADP-ribose) polymerase family member 8) | 1 | 28.9 (active)
PARP8 (poly(ADP-ribose) polymerase family member 8) | 2 | 36.6 (active)
PARP8 (poly(ADP-ribose) polymerase family member 8) | 3 | 33.2 (active)
TIMM50 (translocase of inner mitochondrial membrane 50) | 1 | 49.6 (active)
TIMM50 (translocase of inner mitochondrial membrane 50) | 2 | 47.6 (active)
TIMM50 (translocase of inner mitochondrial membrane 50) | 3 | 66.1 (active)
TRERF1 (transcriptional regulating factor 1) | 1 | 72.7 (active)
TRERF1 (transcriptional regulating factor 1) | 2 | 60.1 (active)
TRERF1 (transcriptional regulating factor 1) | 3 | 68.1 (active)
L3MBTL2 (L3MBTL histone methyl-lysine binding protein 2) | 1 | 34.4 (active)
L3MBTL2 (L3MBTL histone methyl-lysine binding protein 2) | 2 | 34.3 (active)
L3MBTL2 (L3MBTL histone methyl-lysine binding protein 2) | 3 | 44.8 (active)
PHKB (phosphorylase kinase regulatory subunit beta) | 1 | 58.8 (active)
PHKB (phosphorylase kinase regulatory subunit beta) | 2 | 43.9 (active)
PHKB (phosphorylase kinase regulatory subunit beta) | 3 | 39.1 (active)

Next part (4 carried over from the part before).
gene | technical replicate | viability, normalised (%)
L3MBTL2 (L3MBTL histone methyl-lysine binding protein 2) | 3 | 44.8 (active)
PHKB (phosphorylase kinase regulatory subunit beta) | 1 | 58.8 (active)
PHKB (phosphorylase kinase regulatory subunit beta) | 2 | 43.9 (active)
PHKB (phosphorylase kinase regulatory subunit beta) | 3 | 39.1 (active)
USH2A (usherin) | 1 | 84.4
USH2A (usherin) | 2 | 66.9 (active)
USH2A (usherin) | 3 | 66.2 (active)
PDGFRB (platelet derived growth factor receptor beta) | 1 | 56.4 (active)
PDGFRB (platelet derived growth factor receptor beta) | 2 | 53 (active)
PDGFRB (platelet derived growth factor receptor beta) | 3 | 61.7 (active)
ARID2 (AT-rich interaction domain 2) | 1 | 43.7 (active)
ARID2 (AT-rich interaction domain 2) | 2 | 41.8 (active)
ARID2 (AT-rich interaction domain 2) | 3 | 44.5 (active)
ITPK1 (inositol-tetrakisphosphate 1-kinase) | 1 | 56.1 (active)
ITPK1 (inositol-tetrakisphosphate 1-kinase) | 2 | 55.5 (active)
ITPK1 (inositol-tetrakisphosphate 1-kinase) | 3 | 50.4 (active)
PDE1A (phosphodiesterase 1A) | 1 | 32 (active)
PDE1A (phosphodiesterase 1A) | 2 | 41.1 (active)
PDE1A (phosphodiesterase 1A) | 3 | 23 (active)
BRCA1 (BRCA1 DNA repair associated) | 1 | 43.6 (active)
BRCA1 (BRCA1 DNA repair associated) | 1 | 53.4 (active)
BRCA1 (BRCA1 DNA repair associated) | 2 | 44.4 (active)
BRCA1 (BRCA1 DNA repair associated) | 2 | 39.3 (active)
BRCA1 (BRCA1 DNA repair associated) | 3 | 30.7 (active)
BRCA1 (BRCA1 DNA repair associated) | 3 | 44.1 (active)
ASH1L (ASH1 like histone lysine methyltransferase) | 1 | 48.6 (active)
ASH1L (ASH1 like histone lysine methyltransferase) | 2 | 69.7 (active)
ASH1L (ASH1 like histone lysine methyltransferase) | 3 | 64 (active)
TNP1 (transition protein 1) | 1 | 54.1 (active)
TNP1 (transition protein 1) | 2 | 58 (active)
TNP1 (transition protein 1) | 3 | 41.1 (active)
MINK1 (misshapen like kinase 1) | 1 | 42.4 (active)
MINK1 (misshapen like kinase 1) | 2 | 49.5 (active)
MINK1 (misshapen like kinase 1) | 3 | 35.2 (active)
TADA3 (transcriptional adaptor 3) | 1 | 64.9 (active)
TADA3 (transcriptional adaptor 3) | 2 | 64.5 (active)
TADA3 (transcriptional adaptor 3) | 3 | 77.5 (active)
